PubChem BioAssay AID1671190 (National Center for Advancing Translational Sciences (NCATS), 2021)
“And” between values parts separate entries of the source, which are not always exact repeats. Identical values can stand only once. Screen size: about 580,000 compounds; about 6,100 (1.1%) were called active. Inconclusive results, whose numbers are uncertain, are shown with a selection of clear calls. Calls follow the shape of the dose curve; as a rule, active = well fitted inhibition curve with a large enough effect; inconclusive = small, poorly fitted or top-dose-only effect, or another doubt; inactive = no such curve, though single readings can be large or run the other way. A potency beside an inconclusive call is a rough fit, not a confirmed value.

The chains behind the UniProt entries cited, without tags or fusion partners. Where a name states a change or a piece, a line headed by the entry shows the natural chain unless it says otherwise.
UniProt P18054: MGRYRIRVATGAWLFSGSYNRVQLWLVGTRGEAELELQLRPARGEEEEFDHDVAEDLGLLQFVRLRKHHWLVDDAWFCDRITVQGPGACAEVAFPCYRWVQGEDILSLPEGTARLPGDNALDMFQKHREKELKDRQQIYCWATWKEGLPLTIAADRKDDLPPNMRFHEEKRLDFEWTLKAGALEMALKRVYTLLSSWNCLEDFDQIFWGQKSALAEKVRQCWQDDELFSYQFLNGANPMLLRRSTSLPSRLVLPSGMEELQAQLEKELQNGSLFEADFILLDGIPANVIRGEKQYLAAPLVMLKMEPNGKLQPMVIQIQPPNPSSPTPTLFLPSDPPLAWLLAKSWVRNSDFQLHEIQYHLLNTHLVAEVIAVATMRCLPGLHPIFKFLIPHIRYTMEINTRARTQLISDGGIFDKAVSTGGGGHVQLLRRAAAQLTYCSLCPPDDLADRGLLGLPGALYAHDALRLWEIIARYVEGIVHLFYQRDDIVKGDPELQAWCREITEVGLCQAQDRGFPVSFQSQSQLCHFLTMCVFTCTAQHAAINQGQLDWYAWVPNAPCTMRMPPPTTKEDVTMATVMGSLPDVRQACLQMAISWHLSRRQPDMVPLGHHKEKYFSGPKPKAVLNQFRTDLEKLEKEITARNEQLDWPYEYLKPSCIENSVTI

biological target: Polyunsaturated fatty acid lipoxygenase ALOX12 (Homo sapiens) (UniProt P18054); assay: Primary qHTS assay for inhibitors of human arachidonate 12S-lipoxygenase (ALOX12): Round 2; conditions: purified 12hLO, xylenol orange hydroperoxide absorbance; activity change, negative = inhibition: at 108 µM (top of the series) unless noted
In short: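 Purified human 12hLO (150 nM final) in 25 mM Hepes, 0.01% Triton X-100, pH 7.0 was preincubated 15 min at room temperature with compound. Then 40 uM arachidonic acid was added, 30 min. Hydroperoxide was read by Fe-XO absorbance ratio 573/405 nm.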
% is scaled to controls: 0 for no effect and ±100 for the full control effect; potency is read from the fitted curve at half-maximal effect.

Structure (SMILES) | Potency | activity change, negative = inhibition
COc1ccc(-n2cc(-c3ccccc3)[nH]c2=S)c(OC)c1 | inconclusive: 39.8 µM [inhibitor, partial curve, poor fit] | 
CCCCN(C)S(=O)(=O)c1ccc(C(=O)Nc2sc3c(c2C(=O)OCC)CCN(C(C)C)C3)cc1 | inconclusive: 89.1 µM [inhibitor, partial curve, poor fit] | 
COc1cc(/C=N/O)c(Br)c(Br)c1OCc1ccccc1Cl | inactive | 
O=C(NCCc1ccccc1)O[C@H]1CC[C@@]23CCCN2C(=O)CCC[C@H]3[C@H]1Cc1ccccc1 | inconclusive: 28.2 µM [inhibitor, full curve, poor fit] | 
C=CCn1c(SCC(=O)Nc2ccc3c(c2)OCCO3)nc2cc(C(=O)O)ccc2c1=O | inconclusive: 112 µM [inhibitor, partial curve, poor fit] | 
Cc1nn(CCC(=O)Nc2ccccc2Cl)c(=O)c(C#N)c1C | inconclusive: 0.224 µM [inhibitor, full curve, poor fit] | 
CCCCC(=O)NCC1CC2c3ccccc3C1c1ccccc12 (stereo not drawn) | inconclusive: 25.1 µM [inhibitor, single point] | 
COc1ccc(OC)c(C2CC(=O)N3CN(c4cccc(Cl)c4)CSC3=C2C#N)c1 (stereo not drawn) | inconclusive: 3.55 µM [inhibitor, full curve, poor fit] | 
COCCNC(=S)N/N=C(\C)CCc1ccc2c(c1)OCO2 | inactive | 
COc1ccc(/C=C/C(=O)Nc2ccc(S(=O)(=O)Nc3cc(C)nc(C)n3)cc2)cc1OC | inconclusive: 28.2 µM [inhibitor, partial curve, poor fit] | 
O=C(c1ccc(C(F)(F)F)cc1)N1CCC2(C1)C(=O)N(c1ccccc1)c1ccccc12 (stereo not drawn) |  | inactive: 5.8% [at 6.33 µM]
CCC(CO)Oc1cc(NC(=O)c2ccc([N+](=O)[O-])cc2)c2ncn(C(C)C)c2c1 (stereo not drawn) | inconclusive: 31.6 µM [inhibitor, partial curve] | 
Cn1c(SCC(=O)NC2CCCCC2)nc2c(c1=O)SCC2 | inconclusive: 3.16 µM [inhibitor, full curve, poor fit] | 
O=[N+]([O-])c1ccc(S(=O)(=O)N2CCN(C3CCN(Cc4ccccc4)CC3)CC2)cc1 | inconclusive: 0.355 µM [inhibitor, full curve, poor fit] | 
CCOC(=O)/C(=C/c1ccc(OC(F)F)cc1)C1=Nn2c(nnc2-c2ccc(Cl)cc2)SC1 | inactive | 
O=C(Nc1cccc(Br)c1)c1cc(S(=O)(=O)N2CCCCC2)c[nH]1 | inconclusive: 79.4 µM [inhibitor, partial curve, poor fit] | 
CC/C(=C(\c1ccccc1)c1ccc(OCCN(C)C)cc1)c1ccccc1 | inconclusive: 1.41 µM [inhibitor, full curve, poor fit] and inconclusive: 56.2 µM [inhibitor, partial curve, poor fit] and inconclusive: 22.4 µM [inhibitor, partial curve] | inactive: -16.7% [at 22.9 µM]
O=C(NCc1coc(-c2cccs2)n1)c1cc(F)c(Cl)cc1Cl | inconclusive: 50.1 µM [inhibitor, partial curve, poor fit] | 
CC(C)(C)CC(C)(C)NCC(O)COc1c(F)cc(Br)cc1F (stereo not drawn) | inconclusive: 28.2 µM [inhibitor, partial curve, poor fit] | 
COc1ccc(-c2nc3ccccc3c(=O)n2CCOc2cccc(OC)c2)cc1 | inconclusive: 35.5 µM [inhibitor, full curve, poor fit] | 
COc1ccccc1OCC(=O)NCc1ccco1 | inactive | 

Structure (SMILES) | Potency | activity change, negative = inhibition
Cc1ccc(NC(=O)CSCC(=O)N(C)CC(=O)Nc2ccccc2C(F)(F)F)cc1 | inconclusive: 141 µM [inhibitor, partial curve, poor fit] | 
CCCCC(CC)Cn1c(N)c(C#N)c2nc3ccccc3nc21 (stereo not drawn) | inconclusive: 56.2 µM [inhibitor, partial curve, poor fit] | 
Cc1ccc2[nH]cc(CCNC(=O)c3cccc(Cl)c3)c2c1 |  | inconclusive: -30.3% [inhibitor]
O=c1c2ccccc2cnn1Cc1nnc(-c2cccs2)o1 | inactive | 
COc1cccc2[nH]c3c(N4CCC5(CC4)OCCO5)ncnc3c12 | inactive | 
CC(C)Oc1ccc(/C=C(/C#N)C(=O)c2ccccc2F)cc1 | inconclusive: 6.31 µM [inhibitor, full curve, poor fit] | 
O=C(Nc1cccnc1)c1ccc(S(=O)(=O)c2ccc(Cl)cc2)cc1 | inactive | 
O=C(N/N=C/c1ccc2c(c1)OCO2)c1cc(-c2ccccc2)nc2ccccc12 | inactive | 
CCc1oc2ccccc2c1C(=O)c1cc(Br)c(O)c(Br)c1 | inconclusive: 112 µM [inhibitor, single point] and active: 44.7 µM | 
O=C(NCCC(=O)N1CCN(c2ccccc2O)CC1)c1ccc(Cl)cc1 | inconclusive: 44.7 µM [inhibitor, partial curve, poor fit] | 
CCCOc1ccc(N2C(=O)CC(N(CCc3ccc(OC)cc3)C(=O)c3cccc(F)c3)C2=O)cc1 (stereo not drawn) | inconclusive: 35.5 µM [inhibitor, single point] | 
Cc1cnc(C(=O)NC2C[C@H]3CC[C@@H](C2)N3C(=O)c2ccc(C)c(F)c2)cn1 (stereo partly drawn) | inactive | 
COc1ccc2c3n([n+]([O-])c2c1)C(C)CN=C3c1ccc(C)cc1 (stereo not drawn) | inconclusive: 50.1 µM [inhibitor, partial curve, poor fit] | 
Cc1ccc(C(=O)CN(CCC(=O)O)C(=O)c2ccncc2)cc1 | inconclusive: 126 µM [inhibitor, single point] | 
CCCCNC(=O)CSc1nc2ccccc2n1S(=O)(=O)c1ccc(Cl)cc1 | inconclusive: 2 µM [inhibitor, full curve] | 
O=S(=O)(c1ccc2ccccc2c1)N1CCC(c2nc(-c3ccncc3)no2)CC1 | inactive | 
NC(=O)COC(=O)c1cc(-c2cccs2)nc2ccccc12 | inconclusive: 56.2 µM [inhibitor, partial curve, poor fit] | 
O=C(CSC1=Nc2ccccc2C2=NC(Cc3ccccc3)C(=O)N12)Nc1cccc(Cl)c1 (stereo not drawn) | inconclusive: 39.8 µM [inhibitor, full curve, poor fit] | 
CCC1(c2ccc(Cl)cc2)NC(=S)N(c2ccc(C)c(C)c2)N1 (stereo not drawn) | inconclusive: 6.31 µM [inhibitor, partial curve, poor fit] | 
COc1ccccc1C(=O)N1CC(=O)Nc2ccc(F)cc2C1c1ccccc1 (stereo not drawn) | inconclusive: 25.1 µM [inhibitor, single point] | 
COc1ccccc1Cn1c(C2CC(=O)N(c3ccccc3OC)C2)nc2ccccc21 (stereo not drawn) | inconclusive: 0.794 µM [inhibitor, full curve, poor fit] | 

Structure (SMILES) | Potency | activity change, negative = inhibition
COc1ccc(S(=O)(=O)NCc2ccncc2)cc1NC(=O)c1ccccc1 | inconclusive: 2 µM [inhibitor, full curve, poor fit] | 
COc1ccc(C=C2c3ccccc3C(=O)c3ccccc32)c(OC)c1 | inconclusive: 112 µM [inhibitor, single point] | 
COc1ccc(Br)cc1CNC(=O)Cc1cccs1 | inconclusive: 112 µM [inhibitor, single point] | 
O=C(C1=C[C@@H](c2csc3ccccc23)C[C@@H](OCc2ccc(CO)cc2)O1)N1CCN(Cc2ccc3c(c2)OCO3)CC1 | inconclusive: 31.6 µM [inhibitor, partial curve] | 
Cc1ccncc1-c1c(C)nn2c1N(Cc1ccc(C(=O)O)cc1)CCC2 | active: 15.8 µM | 
CC(C)(C)c1ccc(NC(=S)NCc2cccs2)cc1 | active: 31.6 µM | 
O=S(=O)(Nc1ncccn1)c1ccc(NC(=S)NCc2cccnc2)cc1 | inconclusive: 50.1 µM [inhibitor, partial curve, poor fit] | 
O=C(Cn1ccnc1)c1ccc(O)c(O)c1 | inconclusive: 0.631 µM [inhibitor, full curve] | 
CC(=O)NC(c1ccccc1)c1nc(-c2ccccc2C)cs1 (stereo not drawn) | inconclusive: 126 µM [inhibitor, partial curve, poor fit] | 
CCN1C(=O)c2ccccc2Sc2ccc(NC(=O)Nc3cc(C)cc(C)c3)cc21 | inconclusive: 100 µM [inhibitor, partial curve, poor fit] | 
CCN(CC)S(=O)(=O)c1ccc(N2CCOCC2)c(NC(=O)C2CC2)c1 | inactive | 
O=C(N/N=C/c1ccccn1)c1cc(-c2cccc3ccccc23)n[nH]1 | inactive | 
CCN(c1ccc(NC(=O)c2nccnc2N)cc1)C(C)C | inconclusive: 44.7 µM [inhibitor, partial curve, poor fit] | 
CCn1nc(-c2ccccc2S(=O)(=O)NC(C)(C)C)nc1N(C)C | inactive | 
Cc1ccnc(NC(c2cccc(O)c2)c2ccc3ccc(C)nc3c2O)c1 (stereo not drawn) | inconclusive: 31.6 µM [inhibitor, single point] | 
O=C1CC(c2ccc(C(F)(F)F)cc2)c2cnn(Cc3ccc4c(c3)OCO4)c2N1 (stereo not drawn) | inconclusive: 100 µM [inhibitor, single point] | 
CCN(CC(=O)NC(C)(C)C)C(=O)c1cc(C(C)C)nc2ccccc12 | inactive | 
CCC(=O)c1ccc(N2CCN(S(=O)(=O)c3ccccc3)CC2)c(F)c1 | inactive | 
CCOC(=O)c1c(C)[nH]c(=S)c(C#N)c1-c1ccccc1 | inconclusive: 44.7 µM [inhibitor, partial curve, poor fit] | 
COc1cc(C)cc2oc(=O)c(CC(=O)Nc3cccc(C(C)=O)c3)c(C)c12 | inactive | 
